# Reference: article PMC7819943, “Rice protein-binding microarrays: a tool to detect cis-acting elements near promoter regions in rice”
# Protein sequences, listed by entry. Tags and fused reporters are not part of them.
# UniProt Q0JBA9, entry or part of it: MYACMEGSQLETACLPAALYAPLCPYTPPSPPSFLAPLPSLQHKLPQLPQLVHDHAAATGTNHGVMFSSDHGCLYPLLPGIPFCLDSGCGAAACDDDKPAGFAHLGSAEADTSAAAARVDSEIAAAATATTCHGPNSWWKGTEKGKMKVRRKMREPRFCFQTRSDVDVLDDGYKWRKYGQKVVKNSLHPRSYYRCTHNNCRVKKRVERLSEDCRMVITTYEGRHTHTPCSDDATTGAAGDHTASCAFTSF
# This is one part of the list.
# Target: OsWRKY34 (Oryza sativa, UniProt Q0JBA9 1-250)
# Assay: protein-binding microarray (RPBM); PBS, 2% BSA, 51.3 ng/ul salmon testes DNA, 50 uM zinc acetate, 200 nM TF, 25 C, 1 h; high values mean tight binding
# Settings: protein: recombinant; tags: N-terminal polyhistidine and DsRed monomer fusion (pET32a); label: CyDye5-dUTP incorporated in the synthesized complementary strand; 3' TTTTT single-stranded linker to array surface; dsDNA, one strand shown
# Procedure, shortened: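 Binding signal is reported as fluorescence intensity per feature (arbitrary units) from an Axon 4000B scanner. Incubation used 200 nM of each Ni–NTA-purified, N-terminally polyhistidine- and DsRed-fused transcription factor from E. coli BL21-CodonPlus on a double-stranded custom Agilent array for 1 h at 25 °C, with 50 µM zinc acetate in the buffer, followed by washing.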
row,Sequence,binding signal
1,GGGGCTCGCTCTATTTTCTTCTGTATGAATTATGCTTGTCCGGAGTCACCTAGTGCAG,9340 fluorescence intensity (a.u.)
2,GGTAATTCGGTTCTGTTTTATTAACGTGTGTGTACTGATTCGGAGTCACCTAGTGCAG,15400 fluorescence intensity (a.u.)
3,CTCCCATCGCCTCCGCCGACGTCGACCGCCTCCTTTGCTGCGGAGTCACCTAGTGCAG,8900 fluorescence intensity (a.u.)
4,CTCTTTTCTATGTCTTTGTTAGCCGTTGCTTGGTCCACGACGGAGTCACCTAGTGCAG,12500 fluorescence intensity (a.u.)
5,GCAGGCTCACTCACCTCGCTTCCTGTCCGACATCGCGCCGCGGAGTCACCTAGTGCAG,9220 fluorescence intensity (a.u.)
6,ACTCCTCTCCAGTCTCCCCGCCGCTCCGCATCCCGCAGCCCGGAGTCACCTAGTGCAG,8400 fluorescence intensity (a.u.)
7,CTCGCTCTCTCACCCGACCCAACTCATCAGTCGTCGCTTTCGGAGTCACCTAGTGCAG,11100 fluorescence intensity (a.u.)
8,CTACGTGAGCTCGTTGCTGTGTCTCCTCTCTCTGCATCGCCGGAGTCACCTAGTGCAG,9690 fluorescence intensity (a.u.)
9,TTTCACCCATAAAGCGGAAGTGGATTTTTGTCGGGACATCCGGAGTCACCTAGTGCAG,8740 fluorescence intensity (a.u.)
10,ACACCATCTGCACACCTGCACCTGCACCTGCACGGCCGTGCGGAGTCACCTAGTGCAG,9960 fluorescence intensity (a.u.)
11,GCCGTCCATCGCCGCCTCGACCCCGCCGCCGTCCATCGCCCGGAGTCACCTAGTGCAG,13100 fluorescence intensity (a.u.)
12,TCTGAATCCTCTTATTTTCCACATGCTGCTTCTTGAGCCGCGGAGTCACCTAGTGCAG,10400 fluorescence intensity (a.u.)
13,TGCACAGCTGCACTCCTGGAATAACCACCCTCGCACCGATCGGAGTCACCTAGTGCAG,8150 fluorescence intensity (a.u.)
14,TCTCGCGTGCCATAACTATTTTCTCATCCAATCCGCACGTCGGAGTCACCTAGTGCAG,8980 fluorescence intensity (a.u.)
15,CCCCACATCATAACTGTCACTTTTCCCTCAACGTGGGCCTCGGAGTCACCTAGTGCAG,8250 fluorescence intensity (a.u.)
16,ATCCAGGGGCGGGCCCACTATAATTCGTGGGTATTCAAATCGGAGTCACCTAGTGCAG,9790 fluorescence intensity (a.u.)
17,GGTTGTTCAAGGCGGCCGCGCTTCCACGCCCCACGCACCGCGGAGTCACCTAGTGCAG,10000 fluorescence intensity (a.u.)
18,TTCCTGTGGTCTAATCAAACGGTCATTCCTGTGTTTTTTTCGGAGTCACCTAGTGCAG,10000 fluorescence intensity (a.u.)
19,GGCATTTCACAGGCAACATTTAAATTTCCGCATAATCCGGCGGAGTCACCTAGTGCAG,8900 fluorescence intensity (a.u.)
20,TGGGCTTTGTGTTTGATATGGGGCCGATGAAGTTTTTTTTCGGAGTCACCTAGTGCAG,11000 fluorescence intensity (a.u.)
21,GCTTTCGTAGTCGCTTTGCTCGATCGCTCCTCTCGATCCCCGGAGTCACCTAGTGCAG,9250 fluorescence intensity (a.u.)
22,GATCATGTGAGCTTCTCATCAAGGGGTTTCTCTTCTATTCCGGAGTCACCTAGTGCAG,8880 fluorescence intensity (a.u.)
23,CTTTTACTGCACAGAACTTGGTCGAATTGCAAGCCACTTTCGGAGTCACCTAGTGCAG,8140 fluorescence intensity (a.u.)

# Copied from above, nos. 17 to 20
row,Sequence,binding signal
17,GGTTGTTCAAGGCGGCCGCGCTTCCACGCCCCACGCACCGCGGAGTCACCTAGTGCAG,10000 fluorescence intensity (a.u.)
18,TTCCTGTGGTCTAATCAAACGGTCATTCCTGTGTTTTTTTCGGAGTCACCTAGTGCAG,10000 fluorescence intensity (a.u.)
19,GGCATTTCACAGGCAACATTTAAATTTCCGCATAATCCGGCGGAGTCACCTAGTGCAG,8900 fluorescence intensity (a.u.)
20,TGGGCTTTGTGTTTGATATGGGGCCGATGAAGTTTTTTTTCGGAGTCACCTAGTGCAG,11000 fluorescence intensity (a.u.)
